Measurements as given in US9540424B2 (BRISTOL-MYERS SQUIBB COMPANY, priority 2010, dated 2017).
Where a sequence shows no end group, the ends are not given.

Assays:
[1] = general procedure: Fmoc solid-phase peptide synthesis; Fmoc-protected PAL-PEG resin (0.34 mmol/g); HCTU/DIEA; conditions: analytical HPLC
[2] = peptide made by a vendor (peptide synthesis; Fmoc-protected PAL-PEG resin (0.34 mmol/g); HCTU/DIEA); conditions: whole synthesis, analytical HPLC, scale of the general procedure 0.25 mmol
[3] = whole synthesis, scale of the general procedure 0.25 mmol
[4] = oxidative folding step, one disulfide bridge, sequence written open

Mal-Ahx-APLEPMYPGDYATPEQMAQYETQLRRYINTLTRPRY-NH2
final HPLC purity [1, 3]: at least 99%

Mal-GSGSGSGSGS-APLEPMYPGDYATPEQMAQYETQLRRYINTLTRPRY-NH2
purity (crude or final not stated) [2]: 90%

Mal-GSGSGSGSGS-KCNTATCATQRLANFLVRSSNNLGPVLPPTNVGSNTY-NH2
final HPLC purity ([1]; whole synthesis, scale of the general procedure 0.25 mmol, one disulfide bridge, sequence written open): at least 98%

Mal-PEG20-APLEPMYPGDYATPEQMAQYETQLRRYINTLTRPRY-NH2
final HPLC purity [1, 3]: at least 91%

YLGASVPSPDPLEPT REQCELNPACDELSDQYGLKTAYKRIYGITI
final HPLC purity [1, 4]: 98%

YLNNGLGAPAPYPDPLEPH REVCELNPNCDELADHIGFQDAYKRIYGTTV
purity (crude or final not stated) ([2]; one disulfide bridge, sequence written open): 96%

YLYQWLGAPVPYPDPLEPRRE VCELNPDCDELADHIGFQEAYRRFYGPV
final HPLC purity [1, 4]: 99%
